Measured data: PubChem BioAssay AID652272 (Drosophila RNAi Screening Center, 2013)

Purpose: 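Genes whose knock-down decreases or increases Hedgehog reporter output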 (primary screen)
Cells: Drosophila clone 8 (Cl8) cells
Knock-down reagent: long dsRNA against Drosophila genes
Measured: 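Plate reader light from a firefly reporter under a ptc promoter fragment that responds to Hedgehog, with Renilla light as transfection reference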
Scale: firefly Hh reporter signal: higher = more ptc reporter light; Renilla reference signal: higher = more Renilla control light
Call rule: 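Called a hit if the two-replicate mean z-score lies below -2 or above +3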
Calls: active = hit: reporter lowered or raised; inactive = not a hit
The screen tested about 21,000 reagents; this is an unselected part of those that have a named target and a result. Over the whole deposit, 503 (2.4%) are marked active. 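Raw plate light values, not normalised; calls rest on replicate z-scores that were not deposited; hits include reporter decreases as well as increases.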 Entries without a mark were called inactive. The numbers tell different reagents against one gene apart. A plus sign joins genes that one reagent is predicted to hit. No sequences are given here. Not stated in the record: the amount of reagent, the time to read-out.

Target gene	dsRNA no.	firefly Hh reporter signal, replicate 1	firefly Hh reporter signal, replicate 2	Renilla reference signal, replicate 1	Renilla reference signal, replicate 2
mil	1	1.29e5	1.10e5	4983	3524
e(y)3	1	70146 (active)	62384	2907	2891
bonsai	1	90020	75350	1792	6049
CG14834	1	35932	52352	4203	3888
CG1317	1	98468	80765	4816	2954
CG12546 + CG14452	1	89888	82400	3458	2493
Cpr11A	1	88042	2.49e5	2694	9473
Su(Tpl)	1	64873	72624	2438	2620
CG42238	1	52344	65955	2309	2628
CG15800	1	77044	58327	2164	5495
CG31805	1	67763	3.29e5	2033	14112
Rilpl	1	1.16e5	1.16e5	2608	3958
Gbeta76C	1	1.26e5	1.26e5	5436	5490
Cpsf5	1	80340	46371	3925	1997
amd	1	1.03e5	77737	2450	7347
amd	2	85482	47824	2240	5158
CG11089 + CG31381	1	1680	1.99e5	413	2850
CG11089 + CG31381	2	98401	99756	3780	4178
CG2017	1	1.03e5	68379	4907	2445
mld	1	48395	1.47e5	12328	3912
mld	2	87814	99008	3852	4592
Hex-A	1	48833	95152	1862	4854

A portion of the results above, as a working copy:
Target gene	dsRNA no.	firefly Hh reporter signal, replicate 1	firefly Hh reporter signal, replicate 2	Renilla reference signal, replicate 1	Renilla reference signal, replicate 2
CG12546 + CG14452	1	89888	82400	3458	2493
Cpr11A	1	88042	2.49e5	2694	9473
Su(Tpl)	1	64873	72624	2438	2620
CG42238	1	52344	65955	2309	2628
CG15800	1	77044	58327	2164	5495

The results go on:
Target gene	dsRNA no.	firefly Hh reporter signal, replicate 1	firefly Hh reporter signal, replicate 2	Renilla reference signal, replicate 1	Renilla reference signal, replicate 2
CG7362	1	1.64e5	1.37e5	5803	3762
anne	1	3.04e5	1.26e5	16281	2936
CG34049	1	5.06e5	1.54e5	24800	6123
kni	1	89307	78490	2967	2261
Mdr49	1	1.53e5	72069	5671	1285
CG7214	1	1.76e5	1.20e5	6861	5334
CG15572	1	64011	1.31e5	2211	6844
ms(2)34Fe	1	1.19e5	51845	2986	4983
CG43132 (retired record)	1	88604	1.80e5	2347	8362
CG31473	1	1.03e5	1.58e5	2709	4471
CG16710	1	5.39e5	1.25e5	29440	3875
CG42811	1	5.91e5	99191	30458	3412
Rpt5	1	47446	23533	4611	855
heix	1	39964	35511	2380	1692
Mal-A3	1	84253	47496	1916	3379
PolI	1	1.01e5	1.44e5	3833	3805
jeb	1	67491	53546	1264	3684
jeb	2	73239	58578	1040	3968
Hrb87F	1	95569	89472	3911	3286
CG32462 + asRNA:CR43426	1	1.34e5	1.11e5	5334	4141
CG13896	1	68520	51412	2781	3729
beat-Vb	1	62491	2.67e5	11722	5565
beat-Vb	2	4.46e5	81088	3862	3862
beat-Vb	3	1.20e5	89050	4187	2329
CG34267	1	91376	1.35e5	2694	5815
CG2767	1	96080	71344	4509	3179
Amy-d	1	92795	43130	2416	3394
CG32726	1	3.82e5	1.29e5	25463	3131
Ir56b	1	99697	69179	2071	4056
CG3999	1	62672	1.07e5	1557	2513
AstA	1	7.95e5	1.25e5	37943	2587
Diap2	1	79693	50214	4391	2162
CG1620	1	1.45e5	96011	5040	3036
cav	1	80185	82179	3930	3319
hng2	1	77115	1.05e5	3302	3080
